The list shows only some results of the screen, not a fair sample: it gathers tests that were run many times, whatever their T/C, doses with no T/C, and many T/C values between a quarter and a half above the control. Further doses and runs are listed elsewhere. T/C is the treated group as % of the vehicle group. Schedule codes are those of the source, taken here to give the interval after Q, in days (D) or hours (H), and the number of doses after X. Some T/C values are followed by the survivors on the day toxicity was checked, most often the fifth; without a count, all were alive then. Some entries were tested several times; the results are listed from low to high. Some doses have a count of surviving animals in place of a T/C: the source holds a T/C of zero for them, seemingly a mark for toxic or unscored doses. Survivors were counted at the toxicity check, usually on the fifth day, unless a day is given; later deaths do not show.
System: nude mice, LX-1 lung xenograft intrarenal, tumor weight T/C
Assay: NCI In Vivo Anticancer Drug Screen. Data for tumor model Human Lung LX-1 Xenograft (intrarenal inoculation) in NU/NU Swiss (nude) mice
Conditions: T/C endpoint: mean tumor weight change, higher T/C = larger tumour; for T/C: evaluated on day 11
Method in brief: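 Activity was scored by measuring tumors in treated animals and in vehicle controls, then reporting the treated result as a fraction of the control result.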

[1] = dose: 400.0 mg/kg/injection, schedule: Q01DX010 (sc), vehicle: saline with Tween-80
[2] = dose: 200.0 mg/kg/injection, schedule: Q04DX003 (sc), vehicle: Klucel (hydroxypropylcellulose) (HPC)
[3] = dose: 300.0 mg/kg/injection, schedule: Q04DX003 (sc), vehicle: saline
[4] = dose: 600.0 mg/kg/injection, schedule: Q04DX003 (sc), vehicle: saline
[5] = dose: 100.0 mg/kg/injection, schedule: Q01DX010 (sc), vehicle: saline
[6] = dose: 200.0 mg/kg/injection, schedule: Q01DX010 (sc), vehicle: saline
[7] = dose: 400.0 mg/kg/injection, schedule: Q01DX010 (sc), vehicle: saline
[8] = dose: 200.0 mg/kg/injection, schedule: Q01DX010 (sc), vehicle: saline with Tween-80
[9] = dose: 100.0 mg/kg/injection, schedule: Q01DX010 (sc), vehicle: saline with Tween-80
[10] = dose: 2400.0 mg/kg/injection, schedule: Q04DX003 (sc), vehicle: saline with Tween-80

Compound: O=C1NC(=O)C2C3C=CC(C12)C1C2C(=O)NC(=O)C2C31 (stereo not given)
- T/C (dose: 200.0 mg/kg/injection, schedule: Q04DX003 (sc), vehicle: saline with Tween-80): 125 % of control

Compound: O=C(Nc1nncs1)c1ccncc1
- T/C [1]: 127 % of control [2 of 3 alive on day 11]

Compound: N#C[Se-].c1ccc([Te+](c2ccccc2)c2ccccc2)cc1
- T/C (dose: 12.5 mg/kg/injection, schedule: Q04DX003 (sc), vehicle: Klucel (hydroxypropylcellulose) (HPC)): 126 % of control [5 of 6 alive on day 11]
- survivor count (dose: 100.0 mg/kg/injection, schedule: Q04DX003 (sc), vehicle: Klucel (hydroxypropylcellulose) (HPC)): 0 of 6 on day 11
- survivor count [2]: 1 of 6 on day 11
- survivor count (dose: 400.0 mg/kg/injection, schedule: Q04DX003 (sc), vehicle: Klucel (hydroxypropylcellulose) (HPC)): 0 of 6 on day 11

Compound: c1csc(C[N+]23CN4CN(CN(C4)C2)C3)c1
- survivor count (dose: 800.0 mg/kg/injection, schedule: Q04DX003 (sc), vehicle: saline): 0 of 5 on day 11

Compound: CCOC(=O)Nc1cc2c(c(N)n1)N=C(c1ccccc1)CN2
- survivor count (dose: 12.5 mg/kg/injection, schedule: Q04DX003 (sc), vehicle: saline with Tween-80): 3 of 6 on day 11
- survivor count (dose: 50.0 mg/kg/injection, schedule: Q04DX003 (sc), vehicle: saline with Tween-80): 2 of 6 on day 11

Compound: COC(=O)c1ccoc1
- T/C [3]: 136 % of control
- survivor count [4]: 1 of 6 on day 11
- survivor count (dose: 1200.0 mg/kg/injection, schedule: Q04DX003 (sc), vehicle: saline): 0 of 6 on day 11

Compound: Cc1c2ccncc2c(C)c2c1[nH]c1ccccc12
- survivor count (dose: 50.0 mg/kg/injection, schedule: Q01DX010 (sc), vehicle: saline): 0 of 3 on day 11
- survivor count [5]: 0 of 3 on day 11
- survivor count [6]: 0 of 3 on day 11
- survivor count [7]: 0 of 2 on day 11

Compound: CN1C(=O)NC(c2ccc(Cl)cc2)(c2ccc(Cl)cc2)C1=O
- T/C [8]: 146 % of control [2 of 2 alive on day 11]

Compound: CC(=O)O[C@@H]1[C@@H](O)C2=C3[C@]4(C)[C@@H]1C(C)(C)C(=O)C[C@@H]4[C@]3(O)[C@H](OC(C)=O)[C@@]1(C[C@@H]1C)C2=O
- survivor count [9]: 1 of 2 on day 11

Compound: CCCCNCCCNCCCNC(=O)c1csc(-c2csc(CCNC(=O)C(NC(=O)C(C)C(O)C(C)NC(=O)C(NC(=O)c3nc(C(CC(N)=O)NCC(N)C(N)=O)nc(N)c3C)C(OC3OC(CO)C(O)C(O)C3OC3OC(CO)C(O)C(OC(N)=O)C3O)c3cnc[nH]3)C(C)O)n2)n1 (stereo not given)
- survivor count (dose: 64.0 mg/kg/injection, schedule: Q01DX010 (sc), vehicle: saline): 0 of 3 on day 11

Compound: CN(C)C1C(=O)C(C(=O)NP(=O)(NCCCO)N(CCCl)CCCl)=C(O)C2(O)C(=O)C3=C(O)c4c(O)cccc4C(C)(O)C3CC12 (stereo not given)
- survivor count (dose: 600.0 mg/kg/injection, schedule: Q04DX003 (sc), vehicle: saline with Tween-80): 1 of 6 on day 11
- survivor count (dose: 1200.0 mg/kg/injection, schedule: Q04DX003 (sc), vehicle: saline with Tween-80): 0 of 6 on day 11
- survivor count [10]: 0 of 6 on day 11

Compound: C[N+](C)(C)c1ncnc2nc[nH]c12
- survivor count [7]: 0 of 3 on day 11

Compound: CC/C(=C(/CC)c1ccc(O)cc1)c1ccc(O)cc1
- survivor count [8]: 0 of 3 on day 11
- survivor count [1]: 1 of 3 on day 11

Compound: COc1ccc(C(=O)C(CN(C)C)CN(C)C)cc1
- survivor count (dose: 100.0 mg/kg/injection, schedule: Q04DX003 (sc), vehicle: saline): 0 of 6 on day 11

Compound: CCN1C=C/C(=C\C=C/c2cc[n+](CC)c3ccccc23)c2ccccc21
- T/C (dose: 0.5 mg/kg/injection, schedule: Q01DX010 (sc), vehicle: saline): 141 % of control
- T/C (dose: 1.0 mg/kg/injection, schedule: Q01DX010 (sc), vehicle: saline): 133 % of control
- survivor count (dose: 2.0 mg/kg/injection, schedule: Q01DX010 (sc), vehicle: saline): 1 of 3 on day 11

Compound: [Cl][Pt+2][Cl].[NH-]C1CCC1.[NH2-]
- T/C (dose: 25.0 mg/kg/injection, schedule: Q04DX003 (sc), vehicle: suspension in saline): 136 % of control
- survivor count (dose: 50.0 mg/kg/injection, schedule: Q04DX003 (sc), vehicle: suspension in saline): 2 of 6 on day 11
- survivor count (dose: 100.0 mg/kg/injection, schedule: Q04DX003 (sc), vehicle: suspension in saline): 0 of 6 on day 11

Compound: C[PH+](C)C.C[PH+](C)C.[Au]
- survivor count (dose: 40.0 mg/kg/injection, schedule: Q04DX003 (sc), vehicle: suspension in saline): 0 of 6 on day 11

Compound: CO[C@@]12[C@H](COC(N)=O)C3=C(C(=O)C(C)=C(N)C3=O)N1C[C@@H]1N[C@@H]12
- survivor count (dose: 10.0 mg/kg/injection, schedule: Q04DX003 (sc), vehicle: saline): 0 of 6 on day 11
- survivor count (dose: 12.0 mg/kg/injection, schedule: Q04DX003 (sc), vehicle: saline): 0 of 6 on day 11 and 3 of 6 on day 11
- survivor count (dose: 12.0 mg/kg/injection, schedule: Q04DX003 (sc), vehicle: suspension in saline): 0 of 6 on day 11
- survivor count (dose: 24.0 mg/kg/injection, schedule: Q04DX003 (sc), vehicle: saline): 0 of 6 on day 11
- survivor count (dose: 24.0 mg/kg/injection, schedule: Q04DX003 (sc), vehicle: suspension in saline): 0 of 6 on day 11

Compound: O=C(NP(=O)(N1CC1)N1CC1)c1cc(I)ccc1I
- survivor count [6]: 0 of 3 on day 11
- survivor count [7]: 0 of 3 on day 11

Compound: CS(=O)(=O)OCCCNCCCOS(C)(=O)=O
- survivor count (dose: 150.0 mg/kg/injection, schedule: Q04DX003 (sc), vehicle: saline): 2 of 6 on day 11
- survivor count [3]: 0 of 6 on day 11
- survivor count [4]: 0 of 6 on day 11

Compound: Nc1ncnc2c1ncn2C1OC(CO)C(O)C1O (stereo not given)
- survivor count [5]: 0 of 3 on day 11
- survivor count [6]: 0 of 3 on day 11

Compound: Cc1c2cc(Cl)c3ccccc3c2c[n+]2ccccc12
- survivor count [10]: 2 of 6 on day 11

Compound: CC1(CO)C(O)CCC2(C)C1CCC1CC3CC12CCC3(O)CO (stereo not given)
- T/C (dose: 50.0 mg/kg/injection, schedule: Q01DX010 (sc), vehicle: saline with Tween-80): 46, 54, 62 [2 of 3 alive on day 11], 89, 111 % of control
- T/C [9]: 13 [2 of 2 alive on day 11], 16, 33, 54, 63 % of control
- survivor count [9]: 1 of 3 on day 11
- T/C [8]: 2 [2 of 3 alive on day 11], 5 [2 of 3 alive on day 11], 48, 90 % of control [5 of 6 alive on day 11]
- survivor count [8]: 0 of 3 on day 11
- T/C [1]: 29 and 80 % of control
- survivor count [1]: 0 of 3 on day 11

Compound: CC1(O)CC23CC(O)C4(O)C(CC(O)C4(C)C)C(C)(O)C2CCC1C3O (stereo not given)
- survivor count (dose: 2.0 mg/kg/injection, schedule: Q04DX003 (sc), vehicle: Klucel (hydroxypropylcellulose) (HPC)): 0 of 6 on day 11

Compound: N/C(=N\OC(=O)Nc1ccc(CSc2ccc(Cl)cc2)o1)c1ccccn1
- survivor count (dose: 600.0 mg/kg/injection, schedule: Q04DX003 (sc), vehicle: Klucel (hydroxypropylcellulose) (HPC)): 1 of 6 on day 11

Compound: N=C(N)Sc1cc(O)ccc1O
- survivor count [3]: 0 of 6 on day 11
- survivor count [4]: 0 of 6 on day 11

Compound: COc1nc(=O)n(C2C=CC(=O)O2)cc1F (stereo not given)
- survivor count [2]: 0 of 6 on day 11

Compound: CC1=CC(C)(C)Nc2ccc(CSc3ccccc3)cc21
- survivor count (dose: 600.0 mg/kg/injection, schedule: Q01DX010 (sc), vehicle: saline + Tween-80 + alcohol): 1 of 6 on day 11

Compound: CCCCOC(=O)/C=C(\Br)C(=O)OCCCC
- survivor count (dose: 800.0 mg/kg/injection, schedule: Q01DX010 (sc), vehicle: saline with Tween-80): 0 of 3 on day 11

From PubChem BioAssay AID264 (DTP/NCI, 2004)
